Results published in paper PMC8810859.
No constants are given. Whether binding was seen depends on the method and setting. Binding seen in cells or lysates may run through a third protein. Some entries that bind do so weakly or less than the wild type. For some assays here: Sequences can lack the tags named with a protein.

Sequences of proteins named here, by UniProt entry; tags and fusion partners are left off.
UniProt P40337: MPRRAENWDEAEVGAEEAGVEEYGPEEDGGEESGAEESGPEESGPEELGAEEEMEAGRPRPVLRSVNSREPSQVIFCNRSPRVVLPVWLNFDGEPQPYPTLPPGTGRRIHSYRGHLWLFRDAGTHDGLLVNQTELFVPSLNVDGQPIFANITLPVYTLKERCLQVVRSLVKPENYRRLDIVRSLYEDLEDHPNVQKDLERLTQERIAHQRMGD

Experiments:
[1] = biological target: T1, ectopic OTUD6B (myc-tagged) (human) (UniProt Q8N6M0); experiment: co-IP; HEK293T transfected with the constructs; lysate immunoprecipitated with anti-myc antibody, blotted with anti-flag or anti-myc
T1 sequence: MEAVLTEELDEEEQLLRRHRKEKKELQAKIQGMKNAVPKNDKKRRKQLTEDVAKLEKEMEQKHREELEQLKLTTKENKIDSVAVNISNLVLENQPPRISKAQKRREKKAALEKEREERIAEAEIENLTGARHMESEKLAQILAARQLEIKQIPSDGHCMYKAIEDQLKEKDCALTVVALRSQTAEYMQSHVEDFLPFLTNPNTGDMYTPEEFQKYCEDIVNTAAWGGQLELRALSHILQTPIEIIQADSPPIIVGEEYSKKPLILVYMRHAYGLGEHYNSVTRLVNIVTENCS

[2] = biological target: T2, Deubiquitylase ovarian tumor domain-containing 6B (OTUD6B), endogenous (human (endogenous in ACHN)) (UniProt Q8N6M0); experiment: co-IP; endogenous proteins from ACHN cell lysates; HEPES lysis buffer, protein A/G agarose beads, 4 °C
T2 sequence: T1 sequence

| Substance | binding [1] | binding [2] |
| --- | --- | --- |
| flag-pVHL wild type (from UniProt P40337 1-213) | binds | – |
| VHL protein (pVHL), endogenous wild type (from UniProt P40337 1-213) | – | binds |
